Reference: patent US11230581B2, “Peptides and combination of peptides for use in immunotherapy against ovarian cancer and other cancers” (Immatics Biotechnologies GmbH, priority 2015, dated 2022)

System: additional tumor types
Assay: LC-MS detection and over-presentation of the peptides on additional tumor types, cell lines and primary cultures
Set-up: species or system human
Conditions: for peptide additionally found on tumor samples (positive/measured): sample set of FIG. 1E-K
[1] = cell lines and primary cultures
[2] = leukocytic leukemia cancers (FIG. 1D: leukemias)

Sequence	number of samples with detectable presentation of the peptide [1]	number of samples with detectable presentation of the peptide (esophageal cancers)	number of samples with detectable presentation of the peptide (head and neck cancers)	number of samples with detectable presentation of the peptide [2]	number of samples with detectable presentation of the peptide (lung cancers)	number of samples with detectable presentation of the peptide (lymph node cancers)	number of samples with detectable presentation of the peptide (skin cancers)	number of samples with detectable presentation of the peptide (urinary bladder cancers)	number of samples with detectable presentation of the peptide (brain cancers)	number of samples with detectable presentation of the peptide (cancer tissues, total)	number of samples with detectable presentation of the peptide (liver cancers)	number of samples with detectable presentation of the peptide (prostate cancers)	number of samples with detectable presentation of the peptide (uterus cancers)	number of samples with detectable presentation of the peptide (breast cancers)	other results
ALNPEIVSV (listed as Homo sapiens) [SEQ ID NO.: 148]	3	1	2	1	5	3	2	4	–	–	–	–	–	–	–
ALWDIETGQQTTT (listed as Homo sapiens) [SEQ ID NO.: 560]	5	1	2	1	5	6	1	1	1	26	1	1	1	–	number of samples with detectable presentation of the peptide (esophageal and stomach cancer): 1; number of samples with detectable presentation of the peptide (gallbladder cancer): 1
FLFPNQYVDV (listed as Homo sapiens) [SEQ ID NO.: 248]	3	–	–	2	9	2	2	–	–	24	1	1	1	2	number of samples with detectable presentation of the peptide (bile duct cancers): 1
FLLEDDIHVS (listed as Homo sapiens) [SEQ ID NO.: 38]	1	–	1	4	5	6	3	2	–	28	–	–	1	2	number of samples with detectable presentation of the peptide (myeloid cell cancer): 1; number of samples with detectable presentation of the peptide (rectum cancers): 1
GLLRDEALAEV (listed as Homo sapiens) [SEQ ID NO.: 444]	–	–	–	–	–	–	–	–	–	–	–	–	–	–	peptide additionally found on tumor samples (positive/measured) (lymph node cancers): 6/20
ILVEADGAWVV (listed as Homo sapiens) [SEQ ID NO.: 77]	4	–	–	1	4	3	1	1	1	19	–	1	1	2	number of samples with detectable presentation of the peptide (colon cancers): 1
KIFEMLEGV (listed as Homo sapiens) [SEQ ID NO.: 11]	–	1	–	–	10	1	–	–	–	21	1	–	2	–	number of samples with detectable presentation of the peptide (bile duct cancers): 1
KLAEGLDIQL (listed as Homo sapiens) [SEQ ID NO.: 449]	–	–	–	–	–	–	–	–	–	–	–	–	–	–	peptide additionally found on tumor samples (positive/measured) (lymph node cancers): 1/20
KLDDLTQDLTV (listed as Homo sapiens) [SEQ ID NO.: 32]	1	1	2	–	4	3	–	2	–	29	4	1	1	–	number of samples with detectable presentation of the peptide (bile duct cancers): 2; number of samples with detectable presentation of the peptide (rectum cancers): 1
KLLNKIYEA (listed as Homo sapiens) [SEQ ID NO.: 620]	3	2	–	–	5	1	–	1	5	27	–	3	1	2	number of samples with detectable presentation of the peptide (myeloid cell cancer): 1; number of samples with detectable presentation of the peptide (rectum cancers): 1
KTINKVPTV (listed as Homo sapiens) [SEQ ID NO.: 198]	2	–	1	–	14	1	–	2	3	36	1	–	1	2	number of samples with detectable presentation of the peptide (colon cancers): 2; number of samples with detectable presentation of the peptide (rectum cancers): 1
SLFGNSGILENV (listed as Homo sapiens) [SEQ ID NO.: 479]	7	1	1	1	10	1	2	3	–	33	3	–	1	1	number of samples with detectable presentation of the peptide (colon cancers): 1; number of samples with detectable presentation of the peptide (myeloid cell cancer): 1
SLLEQGKEPWMV (listed as Homo sapiens) [SEQ ID NO.: 54]	1	–	–	1	7	1	–	1	2	18	2	–	–	1	number of samples with detectable presentation of the peptide (gallbladder cancer): 1
SLMEPPAVLLL (listed as Homo sapiens) [SEQ ID NO.: 1]	1	2	1	3	12	–	–	2	1	45	–	–	7	1	peptide additionally detected on tumor samples (positive/measured) (AMLs, sample set of FIG. 1A-D): 1/2; number of samples with detectable presentation of the peptide (bone marrow cancers): 3; number of samples with detectable presentation of the peptide (kidney cancer): 1; number of samples with detectable presentation of the peptide (myeloid cell cancer): 1
SLNDEVPEV (listed as Homo sapiens) [SEQ ID NO.: 157]	–	–	–	–	–	–	–	–	–	–	–	–	–	–	peptide additionally found on tumor samples (positive/measured) (lymph node cancers): 2/20
